According to doi:10.1101/2020.11.05.369959:
Results are given in words; binding and its absence hold for the method and conditions named. In cells and extracts the contact can be indirect. These calls come from enrichment with a bait or labelling near it, and not all partners need be listed.

Protein sequences, listed by entry. Tags and fused reporters are not part of them.
UniProt Q9C0K0: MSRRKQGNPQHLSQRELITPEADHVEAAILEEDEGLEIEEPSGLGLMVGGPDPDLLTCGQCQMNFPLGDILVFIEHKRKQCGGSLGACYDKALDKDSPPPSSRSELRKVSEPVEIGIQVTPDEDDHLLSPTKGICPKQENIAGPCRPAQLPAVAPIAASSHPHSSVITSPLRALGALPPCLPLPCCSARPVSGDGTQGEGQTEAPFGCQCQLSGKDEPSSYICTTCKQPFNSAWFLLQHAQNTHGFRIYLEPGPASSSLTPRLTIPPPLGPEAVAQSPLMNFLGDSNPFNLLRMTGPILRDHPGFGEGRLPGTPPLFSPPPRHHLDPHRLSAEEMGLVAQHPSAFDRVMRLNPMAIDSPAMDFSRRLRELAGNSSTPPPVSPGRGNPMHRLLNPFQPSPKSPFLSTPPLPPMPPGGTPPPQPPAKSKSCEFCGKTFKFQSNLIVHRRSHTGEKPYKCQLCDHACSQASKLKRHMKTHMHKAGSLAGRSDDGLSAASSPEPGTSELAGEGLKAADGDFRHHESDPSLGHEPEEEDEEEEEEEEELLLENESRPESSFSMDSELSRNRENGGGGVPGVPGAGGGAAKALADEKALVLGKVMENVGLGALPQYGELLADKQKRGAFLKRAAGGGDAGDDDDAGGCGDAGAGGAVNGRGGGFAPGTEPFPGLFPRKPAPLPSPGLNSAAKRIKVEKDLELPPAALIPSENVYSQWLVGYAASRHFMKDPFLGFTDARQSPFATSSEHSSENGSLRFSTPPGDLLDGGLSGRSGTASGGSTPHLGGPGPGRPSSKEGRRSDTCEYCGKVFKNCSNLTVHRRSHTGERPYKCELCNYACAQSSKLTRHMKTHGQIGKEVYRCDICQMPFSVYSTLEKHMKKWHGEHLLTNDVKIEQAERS

B1: SMG7 (protein, UniProt Q92540 1-1137)
chain: MSLQSAQYLRQAEVLKADMTDSKLGPAEVWTSRQALQDLYQKMLVTDLEYALDKKVEQDLWNHAFKNQITTLQGQAKNRANPNRSEVQANLSLFLEAASGFYTQLLQELCTVFNVDLPCRVKSSQLGIISNKQTHTSAIVKPQSSSCSYICQHCLVHLGDIARYRNQTSQAESYYRHAAQLVPSNGQPYNQLAILASSKGDHLTTIFYYCRSIAVKFPFPAASTNLQKALSKALESRDEVKTKWGVSDFIKAFIKFHGHVYLSKSLEKLSPLREKLEEQFKRLLFQKAFNSQQLVHVTVINLFQLHHLRDFSNETEQHTYSQDEQLCWTQLLALFMSFLGILCKCPLQNESQEESYNAYPLPAVKVSMDWLRLRPRVFQEAVVDERQYIWPWLISLLNSFHPHEEDLSSISATPLPEEFELQGFLALRPSFRNLDFSKGHQGITGDKEGQQRRIRQQRLISIGKWIADNQPRLIQCENEVGKLLFITEIPELILEDPSEAKENLILQETSVIESLAADGSPGLKSVLSTSRNLSNNCDTGEKPVVTFKENIKTREVNRDQGRSFPPKEVRRDYSKGITVTKNDGKKDNNKRKTETKKCTLEKLQETGKQNVAVQVKSQTELRKTPVSEARKTPVTQTPTQASNSQFIPIHHPGAFPPLPSRPGFPPPTYVIPPPVAFSMGSGYTFPAGVSVPGTFLQPTAHSPAGNQVQAGKQSHIPYSQQRPSGPGPMNQGPQQSQPPSQQPLTSLPAQPTAQSTSQLQVQALTQQQQSPTKAVPALGKSPPHHSGFQQYQQADASKQLWNPPQVQGPLGKIMPVKQPYYLQTQDPIKLFEPSLQPPVMQQQPLEKKMKPFPMEPYNHNPSEVKVPEFYWDSSYSMADNRSVMAQQANIDRRGKRSPGVFRPEQDPVPRMPFEKSLLEKPSELMSHSSSFLSLTGFSLNQERYPNNSMFNEVYGKNLTSSSKAELSPSMAPQETSLYSLFEGTPWSPSLPASSDHSTPASQSPHSSNPSSLPSSPPTHNHNSVPFSNFGPIGTPDNRDRRTADRWKTDKPAMGGFGIDYLSATSSSESSWHQASTPSGTWTGHGPSMEDSSAVLMESLKSIWSSSMMHPGPSALEQLLMQQKQKQQRGQGTMNPPH
B2: CDC45 (protein, UniProt O75419 1-566)
chain: MFVSDFRKEFYEVVQSQRVLLFVASDVDALCACKILQALFQCDHVQYTLVPVSGWQELETAFLEHKEQFHYFILINCGANVDLLDILQPDEDTIFFVCDTHRPVNVVNVYNDTQIKLLIKQDDDLEVPAYEDIFRDEEEDEEHSGNDSDGSEPSEKRTRLEEEIVEQTMRRRQRREWEARRRDILFDYEQYEYHGTSSAMVMFELAWMLSKDLNDMLWWAIVGLTDQWVQDKITQMKYVTDVGVLQRHVSRHNHRNEDEENTLSVDCTRISFEYDLRLVLYQHWSLHDSLCNTSYTAARFKLWSVHGQKRLQEFLADMGLPLKQVKQKFQAMDISLKENLREMIEESANKFGMKDMRVQTFSIHFGFKHKFLASDVVFATMSLMESPEKDGSGTDHFIQALDSLSRSNLDKLYHGLELAKKQLRATQQTIASCLCTNLVISQGPFLYCSLMEGTPDVMLFSRPASLSLLSKHLLKSFVCSTKNRRCKLLPLVMAAPLSMEHGTVTVVGIPPETDSSDRKNFFGRAFEKAAESTSSRMLHNHFDLSVIELKAEDRSKFLDALISLLS
B3: Drosha (protein, UniProt Q9NRR4 1-1374)
chain: MMQGNTCHRMSFHPGRGCPRGRGGHGARPSAPSFRPQNLRLLHPQQPPVQYQYEPPSAPSTTFSNSPAPNFLPPRPDFVPFPPPMPPSAQGPLPPCPIRPPFPNHQMRHPFPVPPCFPPMPPPMPCPNNPPVPGAPPGQGTFPFMMPPPSMPHPPPPPVMPQQVNYQYPPGYSHHNFPPPSFNSFQNNPSSFLPSANNSSSPHFRHLPPYPLPKAPSERRSPERLKHYDDHRHRDHSHGRGERHRSLDRRERGRSPDRRRQDSRYRSDYDRGRTPSRHRSYERSRERERERHRHRDNRRSPSLERSYKKEYKRSGRSYGLSVVPEPAGCTPELPGEIIKNTDSWAPPLEIVNHRSPSREKKRARWEEEKDRWSDNQSSGKDKNYTSIKEKEPEETMPDKNEEEEEELLKPVWIRCTHSENYYSSDPMDQVGDSTVVGTSRLRDLYDKFEEELGSRQEKAKAARPPWEPPKTKLDEDLESSSESECESDEDSTCSSSSDSEVFDVIAEIKRKKAHPDRLHDELWYNDPGQMNDGPLCKCSAKARRTGIRHSIYPGEEAIKPCRPMTNNAGRLFHYRITVSPPTNFLTDRPTVIEYDDHEYIFEGFSMFAHAPLTNIPLCKVIRFNIDYTIHFIEEMMPENFCVKGLELFSLFLFRDILELYDWNLKGPLFEDSPPCCPRFHFMPRFVRFLPDGGKEVLSMHQILLYLLRCSKALVPEEEIANMLQWEELEWQKYAEECKGMIVTNPGTKPSSVRIDQLDREQFNPDVITFPIIVHFGIRPAQLSYAGDPQYQKLWKSYVKLRHLLANSPKVKQTDKQKLAQREEALQKIRQKNTMRREVTVELSSQGFWKTGIRSDVCQHAMMLPVLTHHIRYHQCLMHLDKLIGYTFQDRCLLQLAMTHPSHHLNFGMNPDHARNSLSNCGIRQPKYGDRKVHHMHMRKKGINTLINIMSRLGQDDPTPSRINHNERLEFLGDAVVEFLTSVHLYYLFPSLEEGGLATYRTAIVQNQHLAMLAKKLELDRFMLYAHGPDLCRESDLRHAMANCFEALIGAVYLEGSLEEAKQLFGRLLFNDPDLREVWLNYPLHPLQLQEPNTDRQLIETSPVLQKLTEFEEAIGVIFTHVRLLARAFTLRTVGFNHLTLGHNQRMEFLGDSIMQLVATEYLFIHFPDHHEGHLTLLRSSLVNNRTQAKVAEELGMQEYAITNDKTKRPVALRTKTLADLLESFIAALYIDKDLEYVHTFMNVCFFPRLKEFILNQDWNDPKSQLQQCCLTLRTEGKEPDIPLYKTLQTVGPSHARTYTVAVYFKGERIGCGKGPSIQQAEMGAAMDALEKYNFPQMAHQKRFIERKYRQELKEMRWEREHQEREPDETEDIKK
B4: UPF1 (protein, UniProt Q92900 1-1129)
chain: MSVEAYGPSSQTLTFLDTEEAELLGADTQGSEFEFTDFTLPSQTQTPPGGPGGPGGGGAGGPGGAGAGAAAGQLDAQVGPEGILQNGAVDDSVAKTSQLLAELNFEEDEEDTYYTKDLPIHACSYCGIHDPACVVYCNTSKKWFCNGRGNTSGSHIVNHLVRAKCKEVTLHKDGPLGETVLECYNCGCRNVFLLGFIPAKADSVVVLLCRQPCASQSSLKDINWDSSQWQPLIQDRCFLSWLVKIPSEQEQLRARQITAQQINKLEELWKENPSATLEDLEKPGVDEEPQHVLLRYEDAYQYQNIFGPLVKLEADYDKKLKESQTQDNITVRWDLGLNKKRIAYFTLPKTDSGNEDLVIIWLRDMRLMQGDEICLRYKGDLAPLWKGIGHVIKVPDNYGDEIAIELRSSVGAPVEVTHNFQVDFVWKSTSFDRMQSALKTFAVDETSVSGYIYHKLLGHEVEDVIIKCQLPKRFTAQGLPDLNHSQVYAVKTVLQRPLSLIQGPPGTGKTVTSATIVYHLARQGNGPVLVCAPSNIAVDQLTEKIHQTGLKVVRLCAKSREAIDSPVSFLALHNQIRNMDSMPELQKLQQLKDETGELSSADEKRYRALKRTAERELLMNADVICCTCVGAGDPRLAKMQFRSILIDESTQATEPECMVPVVLGAKQLILVGDHCQLGPVVMCKKAAKAGLSQSLFERLVVLGIRPIRLQVQYRMHPALSAFPSNIFYEGSLQNGVTAADRVKKGFDFQWPQPDKPMFFYVTQGQEEIASSGTSYLNRTEAANVEKITTKLLKAGAKPDQIGIITPYEGQRSYLVQYMQFSGSLHTKLYQEVEIASVDAFQGREKDFIILSCVRANEHQGIGFLNDPRRLNVALTRARYGVIIVGNPKALSKQPLWNHLLNYYKEQKVLVEGPLNNLRESLMQFSKPRKLVNTINPGARFMTTAMYDAREAIIPGSVYDRSSQGRPSSMYFQTHDQIGMISAGPSHVAAMNIPIPFNLVMPPMPPPGYFGQANGPAAGRGTPKGKTGRGGRQKNRFGLPGPSQTNLPNSQASQDVASQPFSQGALTQGYISMSQPSQMSQPGLSQPELSQDSYLGDEFKSQIDVALSQDSTYQGERAYQHGGVTGLSQY

What follows are binders tested against Flag-BCL11b (B-cell lymphoma/leukemia 11B) (UniProt Q9C0K0) (assay: affinity purification with mass spectrometry).

binding, binds:
B1, B2, B3, B4
